Values from PubChem BioAssay AID686938 (Drosophila RNAi Screening Center, 2013)
In all, the deposit lists about 23,000 reagents; shown is an unselected part of those with a known target gene and a result. Over the whole deposit, 75 (0.33%) got an active call. 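Raw plate signals without normalisation; calls rest on plate z-scores that were not deposited; ratio present for only 364 wells.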 Names joined by + are all predicted targets of the reagent. Reagent sequences are not shown. Not stated in the record: the dose of the treatment.

Assay: 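Fly genes required for calcium entry once internal stores are emptied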 (primary screen)
Cell system: Drosophila S2R+ cells
Knock-down reagent: long dsRNA against Drosophila genes, about 0.25 µg dsRNA per well, roughly 10,000 cells
Timing: 5 days of knock-down before the calcium assay
Treatment: thapsigargin (SERCA pump blocker) to empty calcium stores; entry signal taken 4 min after adding it
Measured: 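Per-well fluo-4 fluorescence in two replicates, unnormalised, measured in resting cells and 4 min after store depletion by the SERCA blocker thapsigargin; ratio of the two present in few wells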
Scale: calcium entry signal: higher = stronger calcium signal after store depletion; resting calcium signal: higher = higher resting calcium signal
Hit rule: 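Called when the plate z-score of the entry-to-rest ratio, mean of duplicates, falls below −3; wells with low overall dye signal (Fmax z below −2) or more than five off-targets excluded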
Calls: active = strongly reduced calcium entry; inactive = no strong reduction

Gene	dsRNA	calcium entry signal, replicate 1 (fluorescence units)	calcium entry signal, replicate 2 (fluorescence units)	resting calcium signal, replicate 1 (fluorescence units)	resting calcium signal, replicate 2 (fluorescence units)	activity call
EndoB (Endophilin B)	DRSC07345	4.28e7	3.44e7	1.71e7	1.82e7	inactive
COX6AL (Cytochrome c oxidase subunit 6A-like)	DRSC21454	4.67e7	3.22e7	2.29e7	1.46e7	inactive
ksh (kish)	DRSC19554	3.57e7	4.56e7	1.90e7	1.91e7	inactive
CG10910	DRSC06007	4.44e7	5.04e7	1.92e7	2.16e7	inactive
Or9a (Odorant receptor 9a)	DRSC18692	2.93e7	4.96e7	1.49e7	2.36e7	inactive
CG17266	DRSC04979	4.10e7	3.87e7	1.94e7	1.86e7	inactive
CG17266	DRSC22368	3.83e7	4.03e7	1.67e7	2.24e7	inactive
frma (fra mauro)	DRSC18297	2.43e7	2.59e7	1.13e7	1.23e7	inactive
Scgalpha (Sarcoglycan alpha)	DRSC03076	2.76e7	3.90e7	1.36e7	1.98e7	inactive
CG15093	DRSC06522	3.96e7	3.93e7	1.76e7	1.93e7	inactive
CG14540	DRSC14884	4.62e7	6.95e7	2.40e7	3.02e7	inactive
mrva (minerva)	DRSC11009	4.34e7	5.04e7	3.08e7	2.59e7	inactive
mrva (minerva)	DRSC21842	2.17e7	5.16e7	1.04e7	2.23e7	inactive
CG30487	DRSC05377	4.57e7	5.45e7	2.33e7	2.23e7	inactive
Gmer (GDP-4-keto-6-deoxy-D-mannose 3,5-epimerase/4-reductase)	DRSC04376	3.99e7		2.00e7		inactive
hwt (heavyweight)	DRSC19386	4.47e7	2.99e7	2.08e7	1.54e7	inactive
hwt (heavyweight)	DRSC19695	2.87e7	5.66e7	1.51e7	2.53e7	inactive
sty (sprouty)	DRSC08737	2.66e7	2.77e7	1.42e7	1.42e7	inactive
sty (sprouty)	DRSC22994	5.66e7	3.46e7	2.46e7	1.36e7	inactive
CG6592	DRSC10669	1.99e7	3.43e7	1.11e7	1.52e7	inactive
CG18666	DRSC02694	4.15e7	6.56e7	1.89e7	2.75e7	inactive
CG4935	DRSC01924	4.71e7	3.84e7	2.14e7	1.88e7	inactive
CG5515	DRSC15825	4.36e7	3.14e7	2.09e7	1.51e7	inactive
Cpr66Cb (Cuticular protein 66Cb)	DRSC10769	2.77e7	4.88e7	1.29e7	2.12e7	inactive
Cpr51A (Cuticular protein 51A)	DRSC05969	2.28e7	3.73e7	1.19e7	1.59e7	inactive
park (parkin)	DRSC11618	4.51e7	4.24e7	1.88e7	2.86e7	inactive
Creld (Cysteine rich with EGF like domains)	DRSC00308	4.91e7	5.10e7	2.35e7	2.26e7	inactive
t (tan)	DRSC17815	2.85e7	4.38e7	1.48e7	2.11e7	inactive
Jhbp2 (Juvenile hormone binding protein 2)	DRSC12292	3.16e7	5.05e7	1.55e7	2.18e7	inactive
Menl-2 + Menl-1	DRSC07469	4.90e7	4.74e7	1.98e7	2.09e7	inactive
Menl-2 + Menl-1	DRSC07470	4.59e7	5.34e7	2.01e7	2.29e7	inactive
CrebA (Cyclic-AMP response element binding protein A)	DRSC11122	3.78e7	4.32e7	1.75e7	3.04e7	inactive
CG7810	DRSC03072	4.79e7		2.55e7		inactive
Prosalpha1R + Prosalpha1	DRSC07515	1.64e7	1.82e7	1.10e7	1.15e7	inactive
klar (klarsicht)	DRSC08718	4.87e7	3.65e7	2.16e7	1.94e7	inactive
klar (klarsicht)	DRSC22393	2.08e7	2.01e7	1.12e7	9.35e6	inactive
Magi	DRSC04247	4.76e7		2.37e7		inactive
Magi	DRSC04451	4.55e7	4.82e7	2.12e7	2.19e7	inactive
CG11248	DRSC11644	3.39e7	3.92e7	1.55e7	2.55e7	inactive
Pcd (pterin-4a-carbinolamine dehydratase)	DRSC16785	3.79e7	4.90e7	1.86e7	2.03e7	inactive
P5cr-2 (Pyrroline-5-carboxylate reductase-like 2)	DRSC15889	4.03e7	4.65e7	1.90e7	6.89e7	inactive
Rab5	DRSC00777	6.27e7		4.10e7		active
hec (hector)	DRSC19895	3.49e7	3.80e7	1.72e7	1.79e7	inactive
Cog1 (Component of oligomeric golgi complex 1)	DRSC15661	4.09e7	4.95e7	1.83e7	2.08e7	inactive
prim (primacord)	DRSC06575	4.19e7	4.79e7	1.73e7	2.20e7	inactive
Parg (Poly(ADP-ribose) glycohydrolase)	DRSC18696	3.80e7	4.88e7	1.80e7	2.16e7	inactive
CG34409	DRSC14577	3.72e7	3.95e7	1.91e7	1.91e7	inactive
CG34409	DRSC21667	4.61e7	3.67e7	2.41e7	1.70e7	inactive
CG1738	DRSC19772	3.19e7	2.63e7	1.83e7	1.45e7	inactive
dpn (deadpan)	DRSC07605	2.97e7	3.84e7	1.48e7	1.66e7	inactive
CG43347	DRSC17982	3.44e7	4.99e7	1.85e7	2.56e7	inactive
CG43347	DRSC18446	3.18e7	3.46e7	2.02e7	1.62e7	inactive
CG43347	DRSC22656	4.55e7	3.55e7	2.66e7	1.60e7	inactive
CG43347	DRSC22682	2.56e7	2.70e7	1.38e7	1.24e7	inactive
CG43347	DRSC23007	5.09e7	2.96e7	2.53e7	1.29e7	inactive
CG43347	DRSC23170	2.67e7	2.82e7	1.29e7	1.18e7	inactive
CG8248	DRSC07124	4.66e7	4.22e7	2.02e7	1.92e7	inactive
pAbp (poly(A) binding protein)	DRSC07659	2.42e7	2.47e7	1.86e7	1.69e7	active

Targets above whose target name begins with H or h (3):
Gene	dsRNA	calcium entry signal, replicate 1 (fluorescence units)	calcium entry signal, replicate 2 (fluorescence units)	resting calcium signal, replicate 1 (fluorescence units)	resting calcium signal, replicate 2 (fluorescence units)	activity call
hwt (heavyweight)	DRSC19386	4.47e7	2.99e7	2.08e7	1.54e7	inactive
hwt (heavyweight)	DRSC19695	2.87e7	5.66e7	1.51e7	2.53e7	inactive
hec (hector)	DRSC19895	3.49e7	3.80e7	1.72e7	1.79e7	inactive
